No constants are given. Whether binding was seen depends on the method and setting. For some of these results: A result given as binding can be weak or reduced; the word gives no strength. Sequences can lack the tags named with a protein. Values belong to the molecule of their own block, whether it stands above or below them.
Assays:
[1] = biological target: T1, NAC050, yeast two-hybrid fusion (Arabidopsis thaliana) (UniProt Q9SQX9); test: two-hybrid; pGADT7 and pGBKT7 fusions, strains AH109 and Y187 mated; growth on SD-LWH with 0 or 3 mM 3-AT
T1 sequence: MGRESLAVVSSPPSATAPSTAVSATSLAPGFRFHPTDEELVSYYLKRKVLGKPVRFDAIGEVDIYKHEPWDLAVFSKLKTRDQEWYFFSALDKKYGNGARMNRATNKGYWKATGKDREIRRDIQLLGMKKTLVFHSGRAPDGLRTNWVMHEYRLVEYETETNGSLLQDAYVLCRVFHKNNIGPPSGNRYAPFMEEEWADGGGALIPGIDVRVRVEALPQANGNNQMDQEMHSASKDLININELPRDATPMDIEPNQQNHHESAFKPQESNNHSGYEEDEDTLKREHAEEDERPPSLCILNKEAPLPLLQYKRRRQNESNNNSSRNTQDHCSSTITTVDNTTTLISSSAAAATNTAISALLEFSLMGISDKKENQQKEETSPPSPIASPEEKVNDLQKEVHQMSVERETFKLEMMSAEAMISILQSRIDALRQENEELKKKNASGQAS

[2] = biological target: T2, NAC052, yeast two-hybrid fusion (Arabidopsis thaliana) (UniProt Q9SQY0); test: as above
T2 sequence: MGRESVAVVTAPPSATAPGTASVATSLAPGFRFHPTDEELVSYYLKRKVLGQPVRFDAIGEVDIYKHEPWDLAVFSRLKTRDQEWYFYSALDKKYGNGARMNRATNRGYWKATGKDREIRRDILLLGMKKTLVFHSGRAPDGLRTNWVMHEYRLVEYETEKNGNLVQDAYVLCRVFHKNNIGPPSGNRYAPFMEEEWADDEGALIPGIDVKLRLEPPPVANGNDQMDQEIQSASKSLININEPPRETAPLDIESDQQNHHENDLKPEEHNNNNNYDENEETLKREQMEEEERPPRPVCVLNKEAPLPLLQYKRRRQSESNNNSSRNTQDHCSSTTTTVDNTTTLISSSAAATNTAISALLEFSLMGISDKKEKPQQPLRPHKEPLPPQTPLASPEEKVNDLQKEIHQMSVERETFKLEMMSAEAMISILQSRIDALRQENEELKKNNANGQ

[3] = biological target: T3, NAC050-MBP, recombinant (Arabidopsis thaliana) (UniProt Q9SQX9); test: SEC; purified proteins mixed in equivalent molar amounts, 4 °C overnight, Superose 6 10/300GL; fractions detected by immunoblotting (GST, FLAG, MBP, HIS); both purified
T3 sequence: T1 sequence

[4] = biological target: HTH2, yeast two-hybrid fusion (Arabidopsis thaliana); test: two-hybrid; pGADT7 and pGBKT7 fusions, strains AH109 and Y187 mated; growth on SD-LWH with 0 or 3 mM 3-AT
[5] = biological target: HTH1, yeast two-hybrid fusion (Arabidopsis thaliana); test: as above
[6] = biological target: ZDP2, yeast two-hybrid fusion (Arabidopsis thaliana); test: as above
[7] = biological target: HTH3, yeast two-hybrid fusion (Arabidopsis thaliana); test: as above
[8] = biological target: HTH1-His, recombinant (gel filtration) (Arabidopsis thaliana); test: SEC; purified proteins mixed in equivalent molar amounts, 4 °C overnight, Superose 6 10/300GL; fractions detected by immunoblotting (GST, FLAG, MBP, HIS); both purified
[9] = biological target: ZDP2-MBP, recombinant (gel filtration) (Arabidopsis thaliana); test: as above

Molecule: HTH2, yeast two-hybrid fusion (Arabidopsis thaliana)
binding [1]: no binding | binding [2]: no binding

Molecule: HTH1, yeast two-hybrid fusion (Arabidopsis thaliana)
binding [1]: no binding | binding [2]: no binding

Molecule: HTH3, yeast two-hybrid fusion (Arabidopsis thaliana)
binding [1]: no binding | binding [2]: no binding

B2: TRB2, yeast two-hybrid fusion (protein, UniProt Q9FJW5 1-299)
chain: MGAPKQKWTPEEEAALKAGVLKHGTGKWRTILSDTEFSLILKSRSNVDLKDKWRNISVTALWGSRKKAKLALKRTPPGTKQDDNNTALTIVALTNDDERAKPTSPGGSGGGSPRTCASKRSITSLDKIIFEAITNLRELRGSDRTSIFLYIEENFKTPPNMKRHVAVRLKHLSSNGTLVKIKHKYRFSSNFIPAGARQKAPQLFLEGNNKKDPTKPEENGANSLTKFRVDGELYMIKGMTAQEAAEAAARAVAEAEFAITEAEQAAKEAERAEAEAEAAQIFAKAAMKALKFRIRNHPW
binding [4]: binds | binding [5]: binds | binding [6]: binds | binding [7]: binds

B3: TRB1, yeast two-hybrid fusion (protein, UniProt Q8VWK4 1-300)
chain: MGAPKQKWTQEEESALKSGVIKHGPGKWRTILKDPEFSGVLYLRSNVDLKDKWRNMSVMANGWGSREKSRLAVKRTFSLPKQEENSLALTNSLQSDEENVDATSGLQVSSNPPPRRPNVRLDSLIMEAIATLKEPGGCNKTTIGAYIEDQYHAPPDFKRLLSTKLKYLTSCGKLVKVKRKYRIPNSTPLSSHRRKGLGVFGGKQRTSSLPSPKTDIDEVNFQTRSQIDTEIARMKSMNVHEAAAVAAQAVAEAEAAMAEAEEAAKEAEAAEAEAEAAQAFAEEASKTLKGRNICKMMIRA
binding [4]: binds | binding [5]: binds | binding [6]: binds | binding [7]: binds

B5: ICU11-GST, recombinant (gel filtration) (protein, UniProt Q3ED68 1-397)
chain: MCNQTPLRSMALDSSGKQPEQQQQQQPRASSGNGEARLKLRRTPNEEHEPENYEDLPLDYSPSLFTSLERYLPEQLLNSTRIDKASFMRDLLLRYSPDTERVRVLRHKEYRDKIMSSYQRLHGEIYTLDPSSFFAPSFLGAFSRKSEPNFRSSMVESYPGIFTFEMFKPQFCEMLLAEVEHMEKWVYDSRSTIMRPNTMNNFGVVLDDFGFDSMLQKLVDDFISPIAQVLFPEVCGTSLDSHHGYIVEYGKDRDVDLGFHVDDSEVSLNVCLGKQFSGGELYFRGVRCDKHVNSDSTEKEVYDYSHVPGHAILHRGRHRHGARATTSGHRANLILWCRSSTFREMKNYQRDFSGWCGGCKLDKQRRQRDSINATKEILARKAAEKTLVELASKSCAE
binding [9]: binds

Results, then the molecule that gave them:

binding [3]: binds
Molecule: ZDP2-MBP, recombinant (gel filtration) (Arabidopsis thaliana)

binding [4]: binds | binding [5]: binds | binding [6]: binds | binding [7]: binds
B1: TRB3, yeast two-hybrid fusion (protein, UniProt Q9M2X3 1-295)
chain: MGAPKLKWTPEEETALKAGVLKHGTGKWRTILSDPVYSTILKSRSNVDLKDKWRNISVTALWGSRKKAKLALKRTPLSGSRQDDNATAITIVSLANGDVGGQQIDAPSPPAGSCEPPRPSTSVDKIILEAITSLKRPFGPDGKSILMYIEENFKMQPDMKRLVTSRLKYLTNVGTLVKKKHKYRISQNYMAEGEGQRSPQLLLEGNKENTPKPEENGVKNLTKSQVGGEVMIMGMTEKEAAAAAARAVAEAEFAMAEAEEAAREADKAEAEAEAAHIFAKAAMKAVKYRMHSQTR

binding [8]: binds | binding [9]: binds
B4: TRB1-His, recombinant (natural protein, Arabidopsis thaliana, UniProt Q8VWK4 1-300, looked up)
chain: B3 chain
notes: TRB1, Arabidopsis thaliana, AT1G49950; full length in the vector pSMT3; pSMT3 is recalled to add an N-terminal His-SUMO; source: E. coli BL21, purified (His beads)
